## Percent effect of library compounds

Measurements from “University of Dundee, Small-Polar-MMV Screening Library” (2021), ChEMBL document CHEMBL3988442.

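Assay of Toxoplasma gondii numbers, read through their beta-galactosidase reporter with a colour substrate. Tested at 50 µM. The record gives no direction; the compounds picked for IC50 retests had high values, so higher reads as fewer parasites. Of about 18,000 compounds tested this way, about 170 (0.94%) reached 50% or more in at least one test.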

Each number is a percent effect as filed.
The record does not define 0% and 100%; most values in the screen are far below 50% and negative numbers occur (in some assays of this library far below -100).
Compounds were drawn at random from those tested, without regard to their results.

CNC(=O)c1ccc(CNC(=O)c2ccoc2C)cc1 read -4.503%.
Cc1cnc(NC(=O)CCOC(C)C)[nH]1 read -9.748%.
COc1ccc2c(c1)[C@@H](O)CCC2 read -6.066%.
CN(C)c1ncccc1CNC(=O)CC1C=CCC1 (centres undefined) read 0.05061%.
Nc1ccc(C(=O)N2CCC(n3cnnc3)CC2)cn1 read -5.092%.
CC(N)c1nncn1C(C)C (centres undefined) read -4.277%.
CCN(CC)c1ccc(NC(=O)N(C)C)cn1 read 5.415%.
CCc1n[nH]c(CC)n1 read -8.495%.
CN(Cc1cccnc1)Cc1cc(C#N)cs1 read -1.607%.
O=C(NCc1ccc2c(c1)OCO2)NCC(F)(F)F read -9.059%.
O=C(Cc1cccs1)N1CCCC1c1ccncc1 (centres undefined) read -2.303%.
CCC(CO)Nc1ncnc2c1c(Br)nn2C (centres undefined) read -30.04%.
COCCn1c(SCC(=O)NC(N)=O)nc(C)c1C read 7.1%.
NC(CCCO)Cc1ccccc1 (centres undefined) read 2.279%.
CCS(=O)(=O)NC(c1nnc2ccccn12)C(C)C (centres undefined) read -10.44%.
CCC(C(=O)N1CCC(O)CC1)c1ccccc1 (centres undefined) read -1.069%.
NS(=O)(=O)c1ccccc1-c1ccccc1 read -10.51%.
CN(Cc1ccc(S(C)(=O)=O)cc1)CC1COCCO1 (centres undefined) read 2.93%.
CN(CCC#N)C(=O)Cc1ccc(F)cc1 read 5.043%.
CCOCC(=O)NC(C)c1c(F)cccc1OC (centres undefined) read 7.263%.
NCCCN1CCC(C(N)=O)CC1 read -5.671%.
Cc1noc(C(C)N2CCN(C(C)C)CC2)n1 (centres undefined) read -0.9378%.
CC(=O)N(Cc1ncc(C(C)C)o1)C1CCNC1 (centres undefined) read -19.05%.
CCCN(C(=O)COC)C1CCS(=O)(=O)C1 (centres undefined) read -4.276%.
CC(C)NC(=O)CNC(=O)CSc1cccs1 read -1.688%.
COc1cc(-c2nnn(C)n2)ccc1O read 10.39%.
CCCC(C)C(=O)NCc1c[nH]nc1C (centres undefined) read 1.755%.
O=S(=O)(NCCO)N1CCCCC1 read 13.45%.
CC1CNC(=O)CCN1Cc1ccccc1 (centres undefined) read -14.98%.
O=C(CCN1CCCS1(=O)=O)Nc1ccccc1I read -5.671%.
CN(C)C(=O)CNC(=O)c1sccc1Br read -26.07%.
CCN(CC)S(=O)(=O)c1ccc(CCC(=O)NC)cc1 read 3.264%.
OC(CN1CCSC2(CCOCC2)C1)CC(F)(F)F (centres undefined) read 6.719%.
CC(O)CN(C)Cc1ccc(N2CCCC2)nc1 (centres undefined) read 8.693%.
CCOC(=O)c1cnccc1N read 11.96%.
COC(=O)COc1ccc(S(=O)(=O)N2CCCC2)cc1 read -9.36%.
CCOc1ncc(C(=O)N(C)C)cc1Cl read 16.66%.
O=C(NC1CCNC1)c1ccccc1 (centres undefined) read 16.53%.
CC1(C)CN(C(=O)C2CC2)CCO1 read 3.541%.
Nc1[nH]nc(C(=O)N2CCCC(c3nnc[nH]3)C2)c1Cl (centres undefined) read 2.221%.
CN1CCC(NCCC2CCCO2)CC1 (centres undefined) read 2.925%.
CNC(=O)c1cccc(NCc2cccnc2)n1 read -7.109%.
N[C@@H]1CC[C@@H]1NC(=O)CCn1cc(Cl)cn1 read 5.732%.
COCC(=O)Nc1cccc(CN(C)C(C)=O)c1 read 10.99%.

Once more, the final 5:

SMILES,percent effect
Nc1[nH]nc(C(=O)N2CCCC(c3nnc[nH]3)C2)c1Cl (centres undefined),2.221
CN1CCC(NCCC2CCCO2)CC1 (centres undefined),2.925
CNC(=O)c1cccc(NCc2cccnc2)n1,-7.109
N[C@@H]1CC[C@@H]1NC(=O)CCn1cc(Cl)cn1,5.732
COCC(=O)Nc1cccc(CN(C)C(C)=O)c1,10.99